Paper PMC4047118, “BM-1197: A Novel and Specific Bcl-2/Bcl-xL Inhibitor Inducing Complete and Long-Lasting Tumor Regression In Vivo” (PLoS ONE, 2014)
These are yes or no findings as the source states them, for the method shown. In cells and extracts the contact can be indirect. Some entries that bind do so weakly or less than the wild type.

Sequences of proteins named here, by UniProt entry; tags and fusion partners are left off. A change or cut given only in a name is not applied to a line headed by its entry.
UniProt Q64373: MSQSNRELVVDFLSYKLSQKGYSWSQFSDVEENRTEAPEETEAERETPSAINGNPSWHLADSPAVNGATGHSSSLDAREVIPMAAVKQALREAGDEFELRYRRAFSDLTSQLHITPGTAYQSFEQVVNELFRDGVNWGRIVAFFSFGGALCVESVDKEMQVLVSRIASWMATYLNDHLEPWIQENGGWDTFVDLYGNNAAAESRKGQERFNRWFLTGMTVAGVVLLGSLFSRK

T1: Puma (mouse, MCL1-/- MEF cells) (mouse (endogenous in MEF)) (UniProt Q99ML1)
T1 sequence: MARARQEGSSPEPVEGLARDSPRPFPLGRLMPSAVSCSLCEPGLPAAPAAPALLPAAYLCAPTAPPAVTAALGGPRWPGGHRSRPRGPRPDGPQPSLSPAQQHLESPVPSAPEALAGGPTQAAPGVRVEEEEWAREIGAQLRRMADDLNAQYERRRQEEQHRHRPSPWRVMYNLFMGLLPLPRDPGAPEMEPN

B1: Puma (mouse, MCL1-/- MEF cells) (protein, UniProt Q99ML1 1-193)
chain: T1 sequence

Legend:
[1] = molecular target: T1, Puma (mouse, MCL1-/- MEF cells) (mouse (endogenous in MEF)); assay: co-IP; endogenous proteins; MCL1-/- MEF cells treated with DMSO or BM-1197 (50 nM), lysed with CHAPS buffer (150 mM NaCl, 10 mM HEPES pH 7.4, 0.5% Chaps); immunoprecipitation with the indicated antibodies, immunoblot
[2] = molecular target: Bcl-xL (mouse, MCL1-/- MEF cells) (mouse (endogenous in MEF)) (UniProt Q64373); assay: as above

binding [1]	binding [2]	Molecule
binds		Bcl-xL (mouse, MCL1-/- MEF cells) (from UniProt Q64373-1 1-233)
	binds	B1
